Cleaved PARP in drug-treated melanoma cells

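The test systems are human melanoma cell lines, treated with two drugs together for 72 h and then stained and imaged. The read-out is the fraction of cleaved-PARP-positive nuclei, in % of that fraction in the DMSO control; 200 means twice the control level of this apoptosis marker. Concentrations were fixed for each drug; these are the higher of two levels. These are primary screening values without error estimates. Basal and induced levels differ widely between cell lines.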
An unselected part of the screen is shown.
An entry leaves out what has no value listed here.
A dash means that no value is listed here.

Drug key:
GW441756, 2 µM: Cn1cc(/C=C2\C(=O)Nc3cccnc32)c2ccccc21
temozolomide, 10 µM: Cn1nnc2c(C(N)=O)ncn2c1=O
erlotinib, 4 µM: C#Cc1cccc(Nc2ncnc3cc(OCCOC)c(OCCOC)cc23)c1
KU-55933, 5 µM: O=c1cc(-c2cccc3c2Sc2ccccc2S3)oc(N2CCOCC2)c1
bortezomib, 0.005 µM: CC(C)C[C@H](NC(=O)[C@H](Cc1ccccc1)NC(=O)c1cnccn1)B(O)O
CHIR-265, 0.4 µM: Cn1c(Nc2ccc(C(F)(F)F)cc2)nc2cc(Oc3ccnc(-c4ncc(C(F)(F)F)[nH]4)c3)ccc21
lestaurtinib, 0.02 µM: C[C@]12O[C@H](C[C@]1(O)CO)n1c3ccccc3c3c4c(c5c6ccccc6n2c5c31)CNC4=O
AZD7762, 0.1 µM: NC(=O)Nc1cc(-c2cccc(F)c2)sc1C(=O)N[C@H]1CCCNC1
STA-4783, 0.03 µM: CN(NC(=O)CC(=O)NN(C)C(=S)c1ccccc1)C(=S)c1ccccc1

| Combination | COLO 829 | SK-MEL-28 | WM1716 | MZ2-MEL | A101D | A375 | RPMI-7951 | WM3619 | IST-MEL1 | MEL-HO | COLO 800 | UACC-257 | WM115 | C32 | LB2518-MEL |
|---|---|---|---|---|---|---|---|---|---|---|---|---|---|---|---|
| STA-4783 + GW441756 | 217 | 418 | 28.8 | 17.5 | 57.1 | 59.1 | 67.0 | 813 | 131 | 307 | 147 | 22.4 | 2010 | 331 | 375 |
| CHIR-265 + AZD7762 | 213 | 201 | 433 | 249 | 197 | - | 139 | 290 | 143 | 237 | 156 | 74.6 | 1910 | 599 | 351 |
| GW441756 + temozolomide | 160 | 197 | 439 | 98.7 | 105 | 137 | 69.3 | 128 | 71.8 | 51.1 | 196 | 53.1 | 122 | 82.4 | 311 |
| temozolomide + bortezomib | 3900 | 270 | 13800 | 25600 | 818 | 41.0 | 4800 | 2380 | 377 | 226 | 208 | 56.1 | 4390 | 1450 | 3540 |
| GW441756 + KU-55933 | 36.3 | 38.7 | 29.0 | 113 | 53.5 | 36.8 | 75.4 | 106 | 84.8 | 56.1 | 45.1 | 19.6 | 54.7 | 79.7 | 52.3 |
| CHIR-265 + KU-55933 | 198 | 202 | 84.2 | 182 | 180 | 98.9 | 270 | 218 | 66.3 | 69.2 | 52.3 | 40.7 | 1570 | 462 | 713 |
| STA-4783 + erlotinib | 331 | 311 | 80.4 | 142 | 178 | - | 141 | 1330 | 432 | 201 | 300 | 68.9 | 1590 | 4950 | 394 |
| temozolomide + CHIR-265 | 247 | 543 | 432 | 103 | 271 | 143 | 258 | 200 | 86.6 | 124 | 192 | 130 | 658 | 243 | 243 |
| KU-55933 + AZD7762 | 195 | 91.1 | 278 | 27.3 | 67.6 | 182 | 129 | 477 | 63.2 | 60.0 | 35.7 | 20.2 | 213 | 102 | 190 |
| STA-4783 + AZD7762 | 761 | 461 | 275 | 107 | 101 | - | 803 | 2180 | 224 | 178 | 366 | 91.6 | 2850 | 913 | 336 |
| temozolomide + KU-55933 | 94.0 | 431 | 228 | 106 | 120 | 28.2 | 76.7 | 214 | 33.4 | 51.2 | 76.0 | 59.4 | 216 | 89.0 | 56.9 |
| CHIR-265 + STA-4783 | 786 | 208 | 133 | 105 | 802 | - | 174 | 3530 | 102 | 104 | 359 | 67.6 | 3880 | 3530 | 648 |
| temozolomide + erlotinib | 155 | 246 | 353 | 122 | 96.6 | 44.6 | 176 | 99.7 | 98.2 | 111 | 61.9 | 37.5 | 211 | 183 | 232 |
| KU-55933 + bortezomib | 3280 | 325 | 15100 | 17500 | 445 | 43.9 | 1040 | 8520 | 1520 | 382 | 199 | 66.5 | 1520 | 876 | 7260 |
| STA-4783 + KU-55933 | 294 | 1880 | 246 | 181 | 315 | 58.1 | 367 | 2040 | 265 | 173 | 156 | 41.0 | 512 | 304 | 297 |
| GW441756 + AZD7762 | 46.7 | 388 | 235 | 58.8 | 128 | 666 | 164 | 230 | 59.4 | 55.5 | 77.8 | 56.5 | 161 | 118 | 210 |
| erlotinib + bortezomib | 5030 | 166 | 9290 | 23300 | 432 | 199 | 488 | 852 | 194 | 105 | 187 | 49.3 | 3740 | 283 | 6000 |
| GW441756 + erlotinib | 94.3 | 156 | 66.2 | 19.4 | 229 | 9.8 | 86.9 | 144 | 60.5 | 52.7 | 106 | 16.0 | 128 | 162 | 108 |
| bortezomib + lestaurtinib | 3210 | 327 | 14900 | 17900 | 460 | 88.9 | 774 | 2390 | 4610 | 560 | 45.6 | 95.0 | 3300 | 668 | 4220 |
| lestaurtinib + CHIR-265 | 289 | 126 | 59.7 | - | 116 | 100 | 118 | 159 | 102 | 51.3 | 214 | 51.7 | 579 | 49.1 | - |
| erlotinib + AZD7762 | 127 | 124 | 486 | 38.8 | 1240 | - | 269 | 368 | 143 | 254 | 172 | 55.1 | 986 | 271 | 377 |
| GW441756 + bortezomib | 5270 | 180 | 7280 | 16000 | 268 | 226 | 584 | 1890 | 926 | 875 | 261 | 52.6 | 1460 | 758 | 11700 |
| AZD7762 + bortezomib | 1830 | 248 | 7870 | 19900 | 523 | - | 3770 | 1100 | 884 | 841 | 172 | 45.9 | 1630 | 2500 | 2270 |
| KU-55933 + lestaurtinib | 123 | 93.6 | 62.4 | 75.6 | 141 | 151 | 289 | 136 | 128 | 155 | 116 | 65.1 | 157 | 181 | 221 |
| temozolomide + lestaurtinib | 196 | 317 | 276 | - | 94.0 | 80.2 | 75.2 | 107 | 73.0 | 124 | 144 | 37.0 | 511 | 95.3 | - |
| bortezomib + STA-4783 | 493 | 1220 | 2510 | 17000 | 1490 | - | 538 | 1400 | 684 | 707 | 109 | 40.0 | 1980 | 1550 | 2060 |
| KU-55933 + erlotinib | 112 | 64.7 | 64.7 | 184 | 40.4 | 68.0 | 197 | 129 | 40.4 | 56.9 | 100 | 20.6 | 142 | 106 | 299 |
| erlotinib + lestaurtinib | 94.4 | 86.3 | 131 | 176 | 56.6 | 75.1 | 118 | 111 | 60.2 | 52.4 | 142 | 32.3 | 327 | 61.8 | 142 |
| lestaurtinib + AZD7762 | 199 | 253 | 95.2 | 156 | 152 | - | 104 | 319 | 68.2 | 63.0 | 297 | 91.4 | 169 | 224 | 197 |
| GW441756 + lestaurtinib | 110 | 175 | 114 | 31.3 | 367 | 65.2 | 98.8 | 115 | 72.7 | 136 | 183 | 65.6 | 82.8 | 155 | 123 |
| CHIR-265 + erlotinib | 177 | 78.7 | 60.6 | 231 | 54.3 | 204 | 201 | 204 | 154 | 122 | 19.7 | 32.5 | 803 | 356 | 411 |
| CHIR-265 + GW441756 | 54.9 | 64.3 | 64.9 | 190 | 257 | 211 | 132 | 199 | 136 | 174 | 111 | 85.6 | 379 | 231 | 142 |

Once more, the final 3:

{"combination": "GW441756 + lestaurtinib", "COLO 829": 110, "SK-MEL-28": 175, "WM1716": 114, "MZ2-MEL": 31.3, "A101D": 367, "A375": 65.2, "RPMI-7951": 98.8, "WM3619": 115, "IST-MEL1": 72.7, "MEL-HO": 136, "COLO 800": 183, "UACC-257": 65.6, "WM115": 82.8, "C32": 155, "LB2518-MEL": 123}
{"combination": "CHIR-265 + erlotinib", "COLO 829": 177, "SK-MEL-28": 78.7, "WM1716": 60.6, "MZ2-MEL": 231, "A101D": 54.3, "A375": 204, "RPMI-7951": 201, "WM3619": 204, "IST-MEL1": 154, "MEL-HO": 122, "COLO 800": 19.7, "UACC-257": 32.5, "WM115": 803, "C32": 356, "LB2518-MEL": 411}
{"combination": "CHIR-265 + GW441756", "COLO 829": 54.9, "SK-MEL-28": 64.3, "WM1716": 64.9, "MZ2-MEL": 190, "A101D": 257, "A375": 211, "RPMI-7951": 132, "WM3619": 199, "IST-MEL1": 136, "MEL-HO": 174, "COLO 800": 111, "UACC-257": 85.6, "WM115": 379, "C32": 231, "LB2518-MEL": 142}

Values as published with doi:10.1371/journal.pone.0140310, rounded.